# Microarray screen: hit calls

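Compounds were printed on reactive glass slides in duplicate spots, a dye-labelled oligonucleotide was laid over them, and the fluorescence left after washing was read. The data file lists only calls. An earlier report of the laboratory on the PreQ1, TPP and SAM-II riboswitches (doi:10.1038/s41467-019-09493-3) used 1 µM RNA for 2 h and required a mean Z-score above 3 (spot signal-to-noise against the whole library), a score well above that on a control array, and duplicate spots agreeing (coefficient of variation under 100); it then also set aside compounds that hit other targets, which this list keeps. The cut-offs behind this list may differ. These are primary screening calls, not affinities; a compound without a hit may have attached poorly or may still bind in solution.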 “1” means called a hit, “0” means screened and not called a hit. Compounds were drawn at random from those tested, without regard to their results. A target missing from an entry has no call listed here.

Targets (5′ to 3′):
T1: SAM-II riboswitch RNA pseudoknot, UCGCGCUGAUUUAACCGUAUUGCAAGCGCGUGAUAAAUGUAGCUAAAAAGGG. About 21,000 compounds screened, about 200 hits.
T2: PreQ1 riboswitch RNA pseudoknot, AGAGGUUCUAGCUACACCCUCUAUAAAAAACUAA. From B. subtilis. About 24,000 compounds screened, about 170 hits.

{"compound": "Fc1ccccc1-c1ccc(CNCCN2CCOCC2)o1", "T2": "0"}
{"compound": "Cc1ccc2c(CNCc3ccccc3)c(C(=O)O)[nH]c2c1", "T2": "0"}
{"compound": "Cc1[nH]c2ccccc2c1C=Cc1nc2ccccc2c(=O)n1CCCO", "T2": "0"}
{"compound": "COc1cc(CNC(C)c2ccccc2)ccc1OCc1ccc2c(c1)n(C)c(=O)n2C", "stereo": "centres unmarked", "T2": "0"}
{"compound": "c1ccc(-c2nccn2CCCNc2cccnc2)nc1", "T1": "0", "T2": "0"}
{"compound": "CCOc1ccc(NC(=O)N(O)C2(C#N)CCCCC2)cc1", "T1": "0", "T2": "0"}
{"compound": "CCCCOc1ccc(NC(=O)CSc2nnc(N)s2)cc1", "T1": "0", "T2": "0"}
{"compound": "O=S1(=O)C[C@H](NCC2CCCO2)[C@@H](S(=O)(=O)c2ccccc2)C1", "stereo": "some centres unmarked", "T2": "0"}
{"compound": "CC(O)CSc1nc2c(c(=O)n(C)c(=O)n2C)n1Cc1ccccc1", "stereo": "centres unmarked", "T1": "0", "T2": "0"}
{"compound": "CC1=C(C(=O)OC(C)C)C(c2cccs2)C(C#N)=C(N)O1", "stereo": "centres unmarked", "T1": "0", "T2": "0"}
{"compound": "CC[C@]1(O)C[C@H]2CN(CCc3c([nH]c4ccccc34)[C@@](C(=O)OC)(c3cc4c(cc3OC)N(C=O)[C@H]3[C@@](O)(C(=O)OC)[C@H](OC(C)=O)[C@]5(CC)C=CCN6CC[C@]43[C@@H]65)C2)C1", "T1": "0", "T2": "0"}
{"compound": "O=C1c2cccnc2C(Nc2ccc(S(=O)(=O)N3CCCCCC3)cc2)N1Cc1ccccc1", "stereo": "centres unmarked", "T1": "0", "T2": "0"}
{"compound": "C=CCNc1nnc(COc2ccc(Br)cc2)s1", "T2": "0"}
{"compound": "COc1ccc(C2C(C#N)=C(N)OC3=C2C(=O)CC(C)(C)C3)cc1OC", "stereo": "centres unmarked", "T1": "0", "T2": "0"}
{"compound": "CCOc1ccc(S(=O)(=O)[C@H]2CS(=O)(=O)C[C@@H]2NCc2ccncc2)cc1", "T2": "0"}
{"compound": "CC(C)OC(=O)C1=C(N)OC2=C(C(=O)CC(C)(C)C2)C1c1ccc(Cl)cc1", "stereo": "centres unmarked", "T1": "0", "T2": "0"}
{"compound": "CCOC(=O)C1CCN(c2c(NC3CCCC(C)C3C)c(=O)c2=O)CC1", "stereo": "centres unmarked", "T1": "0", "T2": "0"}
{"compound": "CC(c1ccccc1)C1C(C#N)=C(N)Oc2[nH]nc(-c3ccccc3)c21", "stereo": "centres unmarked", "T1": "0", "T2": "0"}
{"compound": "CC(C)COC(=O)c1sc2nc(N3CCOCC3)c3c(c2c1N)CC(C)(C)OC3", "T1": "0", "T2": "0"}
{"compound": "COc1ccccc1Nc1c(-c2ccc(N(C)C)cc2)nc2cnccn12", "T2": "0"}
{"compound": "Cc1[nH]c(=O)[nH]c(=O)c1NCCO", "T1": "0", "T2": "0"}
{"compound": "COc1ccc(CNc2ccc(N3CCN(C(C)=O)CC3)cc2)cc1OC", "T1": "0", "T2": "0"}
{"compound": "Cc1ccc(CNc2ccc(C(=O)NCc3cnc(C)cn3)cc2)cc1", "T1": "0", "T2": "0"}
{"compound": "CCOC(=O)c1c(N)n(-c2ccccc2OC)c2nc3ccccc3nc12", "T1": "0", "T2": "0"}
{"compound": "O=C(O)[C@@H](c1ccc(OCc2ccc3ccccc3n2)cc1)C1CCCC1", "T1": "0", "T2": "0"}
{"compound": "CCOc1ccc(-c2noc(-c3nnn(-c4ccc(Cl)cc4)c3N)n2)cc1", "T2": "0"}
{"compound": "Cc1cc(NCc2ccccn2)n2ncc(-c3ccc(Cl)cc3)c2n1", "T2": "0"}
{"compound": "CCc1nccn1CC(=O)N1CCCC2(CCNC2)C1", "stereo": "centres unmarked", "T1": "0", "T2": "0"}
{"compound": "COc1cc(CC(=O)C(=O)O)oc(=O)c1", "T1": "0", "T2": "0"}
{"compound": "NCCCN1C(=O)CC[C@H]2CN(c3nc(-c4ccccc4)no3)CC[C@H]21", "T1": "0", "T2": "0"}
{"compound": "Cc1cccc(CNc2ncc(-c3ccc(F)cc3)n2C)c1", "T1": "0", "T2": "0"}
{"compound": "O=C(Cc1ccccc1)C1CCCN(C(CO)CO)C1", "stereo": "centres unmarked", "T1": "0", "T2": "0"}
{"compound": "Cc1ccc(N)c(-c2nnc(-c3ccncc3)o2)c1", "T1": "0", "T2": "0"}
{"compound": "COc1ccccc1NCc1ccccc1-c1nnc(-c2ccccc2Cl)o1", "T1": "0", "T2": "0"}
{"compound": "O=C1OCCN1CCNCC1(O)CCCN(Cc2ccccc2F)C1=O", "stereo": "centres unmarked", "T1": "0", "T2": "0"}
{"compound": "Cc1ccc(Nc2c(-c3cccc(O)c3)nc3cnccn23)c(C)c1", "T2": "0"}
{"compound": "N#CC1=C(N)Oc2c(c(=O)oc3ccccc23)C1c1ccc(F)cc1F", "stereo": "centres unmarked", "T1": "0", "T2": "0"}
{"compound": "Cc1nc(CCN)cc(N(C)Cc2cccc3cnccc23)n1", "T1": "0", "T2": "1"}
{"compound": "CC(Nc1cc(Cl)ccc1[N+](=O)[O-])C12CC3CC(CC(C3)C1)C2", "stereo": "centres unmarked", "T1": "0", "T2": "0"}
{"compound": "CCOC(=O)N1CCC(Nc2c(N3CCN(Cc4ccccc4)CC3)c(=O)c2=O)CC1", "T2": "0"}
{"compound": "COc1ccc(CC(=O)c2ccc(O)cc2O)cc1", "T1": "0", "T2": "0"}
{"compound": "COc1cccc2c(Nc3cccc(Cl)c3C)cc(C)nc12", "T1": "0", "T2": "0"}
{"compound": "Nc1nc2c(s1)c(=O)[nH]c(=O)n2-c1ccc(Cl)cc1", "T1": "0", "T2": "0"}
{"compound": "Cc1cc(NC(C)c2ccccc2)n2nc(C)c(-c3ccc(F)cc3)c2n1", "stereo": "centres unmarked", "T2": "0"}
{"compound": "Cn1c(=O)[nH]c(=O)c2[nH]c(N(CCO)Cc3ccccc3)nc21", "T1": "0", "T2": "0"}
{"compound": "Cc1cc(C)cc(NC(=O)Cn2nnc(C(=O)Nc3ccc(F)c(Cl)c3)c2N)c1", "T1": "0", "T2": "0"}
{"compound": "CNC(=O)c1nn(-c2ccccc2Cl)nc1CO", "T2": "0"}
{"compound": "CCc1c(C)nc2sc(C(=O)c3ccc(OC)cc3)c(N)c2c1C", "T1": "0", "T2": "0"}
{"compound": "CCOC(=O)N1CCC(Nc2c(N3CCN(CC)CC3)c(=O)c2=O)CC1", "T2": "0"}

Once more, the final 2:

{"compound": "CCc1c(C)nc2sc(C(=O)c3ccc(OC)cc3)c(N)c2c1C", "T1": "0", "T2": "0"}
{"compound": "CCOC(=O)N1CCC(Nc2c(N3CCN(CC)CC3)c(=O)c2=O)CC1", "T2": "0"}

Source: the ROBIN nucleic acid binder screens (doi:10.1002/anie.202211358).